{
  "source": "paper PMC6894885",
  "target": "Flag-tagged replication and transcription activator (RTA), full length (Kaposi's sarcoma-associated herpesvirus (KSHV)) (UniProt F5HCV3)",
  "test": "affinity purification with mass spectrometry",
  "note": "These are yes or no findings as the source states them, for the method shown. Binding seen in cells or lysates may run through a third protein. Here binding means that the protein was enriched with, or labelled near, the bait; the list need not be complete.",
  "data": [
    {"substance": "Endogenous NCOA2 (from UniProt Q15596 1-1464)", "values": [
      {"measurement": "binding", "value": "binds"}
    ]}
  ]
}
